Data source: PubChem BioAssay AID1259254 (NCATS, 2017)
Shown is a random part of about 59,000 reagents. About 1,550 of them (2.6%) were called active. 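G2 share is only a proxy for re-replication; each gene was hit by three separate siRNAs, and active genes were retested.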 The raw values are shown without normalisation. The numbers tell different reagents against one gene apart. The record does not give: the amount of reagent.

Test: 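Gene knock-downs that lead to re-replication, shown by excess G2 DNA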 (primary screen)
System: human HCT116 colorectal cancer cells
Reagents: single siRNA against human genes
Duration: 3 days
Measured: 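Imaged Hoechst DNA stain sorts each cell into a cycle phase by DNA amount; per plate, G2 fraction set to 0% for non-targeting and 100% for GMNN siRNA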
Reading the numbers: G2 robust z-score and G2 cells, % of GMNN control: higher = more G2 cells, more excess DNA replication; raw share of cells in G2: higher = larger share of cells with G2 DNA content
Active means: 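Active siRNAs have a G2 robust z of 5 or more median absolute deviations over the median, which in these data means about 38% or higher of GMNN control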

gene | reagent | G2 robust z-score | G2 cells, % of GMNN control | raw share of cells in G2 (%) | Call
RANBP1P1 | 1 | 1.78 | 15.5 | 9.07 | inactive
RANBP1P1 | 2 | 0.789 | 8.52 | 7.11 | inactive
RANBP1P1 | 3 | 2.35 | 19.5 | 13 | inactive
CABYR | 1 | 1.31 | 12.2 | 7.56 | inactive
CABYR | 2 | -0.64 | -1.53 | 3.84 | inactive
CABYR | 3 | 0.254 | 4.75 | 6 | inactive
CPAMD8P1 | 1 | -0.404 | 0.128 | 4.03 | inactive
CPAMD8P1 | 2 | 0.33 | 5.29 | 5.57 | inactive
CPAMD8P1 | 3 | -0.231 | 1.34 | 4.73 | inactive
EXOC6B | 1 | -0.0649 | 2.51 | 5.97 | inactive
EXOC6B | 2 | 1.21 | 11.5 | 8.89 | inactive
EXOC6B | 3 | 1.49 | 13.4 | 8.2 | inactive
ALDH16A1 | 1 | 2.06 | 17.5 | 12.5 | inactive
ALDH16A1 | 2 | 1.11 | 10.8 | 10.7 | inactive
ALDH16A1 | 3 | -1.04 | -4.32 | 2.85 | inactive
GJA5 | 1 | 0.158 | 4.08 | 5.08 | inactive
GJA5 | 2 | -0.638 | -1.52 | 4.13 | inactive
GJA5 | 3 | 1.04 | 10.3 | 6.85 | inactive
GLP2R | 1 | 0.0251 | 3.14 | 6.97 | inactive
GLP2R | 2 | 0.0702 | 3.46 | 5.73 | inactive
GLP2R | 3 | -0.597 | -1.23 | 2.89 | inactive
NPM1 | 1 | 1.68 | 14.8 | 9.33 | inactive
NPM1 | 2 | -0.438 | -0.114 | 4.79 | inactive
NPM1 | 3 | -0.144 | 1.95 | 3.82 | inactive
C10orf53 | 1 | 0.402 | 5.8 | 5.75 | inactive
C10orf53 | 2 | -0.825 | -2.83 | 1.95 | inactive
C10orf53 | 3 | -0.0553 | 2.58 | 4.05 | inactive
MYL3 | 1 | 0.0748 | 3.49 | 4.35 | inactive
MYL3 | 2 | -0.11 | 2.2 | 6.34 | inactive
MYL3 | 3 | -0.00256 | 2.95 | 6.5 | inactive
LINC00927 | 1 | -0.0199 | 2.83 | 4.13 | inactive
LINC00927 | 2 | 6.87 | 51.3 | 22.3 | active
LINC00927 | 3 | 2.15 | 18.1 | 10 | inactive
ZNF878 | 1 | 0.341 | 5.36 | 6.2 | inactive
ZNF878 | 2 | -1.06 | -4.52 | 1.69 | inactive
ZNF878 | 3 | 1.41 | 12.9 | 7.87 | inactive
UBE2L3 | 1 | 0.173 | 4.18 | 7.36 | inactive
UBE2L3 | 2 | 1.46 | 13.2 | 8.83 | inactive
UBE2L3 | 3 | -0.299 | 0.862 | 4.58 | inactive
SDHA | 1 | -0.432 | -0.0749 | 4.52 | inactive
SDHA | 2 | -0.39 | 0.222 | 4.03 | inactive
SDHA | 3 | -0.00984 | 2.9 | 6.66 | inactive
CALCA | 1 | 7.43 | 55.3 | 24.7 | active
CALCA | 2 | -0.393 | 0.199 | 4.07 | inactive
CALCA | 3 | 0.264 | 4.83 | 6.36 | inactive

Sorted by “raw share of cells in G2 (%)” (highest first): 10 of the entries above.
gene | reagent | G2 robust z-score | G2 cells, % of GMNN control | raw share of cells in G2 (%) | Call
CALCA | 1 | 7.43 | 55.3 | 24.7 | active
UBE2L3 | 2 | 1.46 | 13.2 | 8.83 | inactive
ZNF878 | 3 | 1.41 | 12.9 | 7.87 | inactive
UBE2L3 | 1 | 0.173 | 4.18 | 7.36 | inactive
SDHA | 3 | -0.00984 | 2.9 | 6.66 | inactive
ZNF878 | 1 | 0.341 | 5.36 | 6.2 | inactive
UBE2L3 | 3 | -0.299 | 0.862 | 4.58 | inactive
SDHA | 1 | -0.432 | -0.0749 | 4.52 | inactive
SDHA | 2 | -0.39 | 0.222 | 4.03 | inactive
ZNF878 | 2 | -1.06 | -4.52 | 1.69 | inactive

Further reagents follow:
gene | reagent | G2 robust z-score | G2 cells, % of GMNN control | raw share of cells in G2 (%) | Call
DNAJC27 | 1 | -0.165 | 1.81 | 6.77 | inactive
DNAJC27 | 2 | -0.737 | -2.22 | 2.95 | inactive
DNAJC27 | 3 | 0.088 | 3.59 | 5.57 | inactive
MED9 | 1 | 1.93 | 16.6 | 10.9 | inactive
MED9 | 2 | -1.15 | -5.14 | 2.01 | inactive
MED9 | 3 | -1.25 | -5.81 | 1.28 | inactive
TMT1A | 1 | -0.153 | 1.89 | 4.82 | inactive
TMT1A | 2 | 1.57 | 14 | 8.57 | inactive
TMT1A | 3 | -1.48 | -7.45 | 2.78 | inactive
ABL1 | 1 | -0.559 | -0.967 | 5.29 | inactive
ABL1 | 2 | 0.154 | 4.05 | 6.77 | inactive
ABL1 | 3 | -0.44 | -0.128 | 3.98 | inactive
C1orf174 | 1 | 1.74 | 15.2 | 10.3 | inactive
C1orf174 | 2 | -0.397 | 0.176 | 4.05 | inactive
C1orf174 | 3 | -0.0493 | 2.62 | 4.41 | inactive
ELL2 | 1 | -0.711 | -2.04 | 2.85 | inactive
ELL2 | 2 | 0.1 | 3.67 | 7.62 | inactive
ELL2 | 3 | 0.498 | 6.47 | 6.05 | inactive
ARL4C | 1 | -0.721 | -2.11 | 3.9 | inactive
ARL4C | 2 | -0.56 | -0.972 | 2.87 | inactive
ARL4C | 3 | -0.13 | 2.06 | 5.98 | inactive
TRIP11 | 1 | 1.3 | 12.1 | 9.03 | inactive
TRIP11 | 2 | -0.88 | -3.22 | 3.07 | inactive
TRIP11 | 3 | -0.173 | 1.75 | 5.88 | inactive
